Measurements published in patent US20130244963A1 (Portola Pharmaceuticals, Inc., priority 2010, published 2013).

How the values were obtained:
Ramos = assay: Viability of Burkitt's lymphoma cell line by luminescent ATP detection; type: cell-based
Daudi = assay: as above; type: cell-based

NC(=O)c1cnc(N[C@@H]2CCCC[C@@H]2N)nc1Nc1cccc(-n2nccn2)c1 [Compound 1, 4-(3-(2H-1,2,3-triazol-2-yl)phenylamino)-2-((1R,2S)-2-aminocyclohexylamino)pyrimidine-5-carboxamide]
Hill slope (Ramos): 1.17 and 1.43
Hill slope (Daudi): 1.42 and 1.44

COc1cccc2c1C(=O)c1c(O)c3c(c(O)c1C2=O)C[C@@](O)(C(=O)CO)C[C@@H]3O[C@H]1C[C@H](N)[C@H](O)[C@H](C)O1 [Doxorubicin, reference compound]
Hill slope (Ramos): 3.7
Hill slope (Daudi): 1.26

“And” between values parts separate entries of the source, which are not always exact repeats. Equal values may be shown once.
